Paper doi:10.64898/2025.11.30.691369

Protein sequences, listed by entry. Tags and fused reporters are not part of them. Lines headed by an entry give the natural chain unless they say otherwise; changes in a name come on top.
UniProt P0DO08: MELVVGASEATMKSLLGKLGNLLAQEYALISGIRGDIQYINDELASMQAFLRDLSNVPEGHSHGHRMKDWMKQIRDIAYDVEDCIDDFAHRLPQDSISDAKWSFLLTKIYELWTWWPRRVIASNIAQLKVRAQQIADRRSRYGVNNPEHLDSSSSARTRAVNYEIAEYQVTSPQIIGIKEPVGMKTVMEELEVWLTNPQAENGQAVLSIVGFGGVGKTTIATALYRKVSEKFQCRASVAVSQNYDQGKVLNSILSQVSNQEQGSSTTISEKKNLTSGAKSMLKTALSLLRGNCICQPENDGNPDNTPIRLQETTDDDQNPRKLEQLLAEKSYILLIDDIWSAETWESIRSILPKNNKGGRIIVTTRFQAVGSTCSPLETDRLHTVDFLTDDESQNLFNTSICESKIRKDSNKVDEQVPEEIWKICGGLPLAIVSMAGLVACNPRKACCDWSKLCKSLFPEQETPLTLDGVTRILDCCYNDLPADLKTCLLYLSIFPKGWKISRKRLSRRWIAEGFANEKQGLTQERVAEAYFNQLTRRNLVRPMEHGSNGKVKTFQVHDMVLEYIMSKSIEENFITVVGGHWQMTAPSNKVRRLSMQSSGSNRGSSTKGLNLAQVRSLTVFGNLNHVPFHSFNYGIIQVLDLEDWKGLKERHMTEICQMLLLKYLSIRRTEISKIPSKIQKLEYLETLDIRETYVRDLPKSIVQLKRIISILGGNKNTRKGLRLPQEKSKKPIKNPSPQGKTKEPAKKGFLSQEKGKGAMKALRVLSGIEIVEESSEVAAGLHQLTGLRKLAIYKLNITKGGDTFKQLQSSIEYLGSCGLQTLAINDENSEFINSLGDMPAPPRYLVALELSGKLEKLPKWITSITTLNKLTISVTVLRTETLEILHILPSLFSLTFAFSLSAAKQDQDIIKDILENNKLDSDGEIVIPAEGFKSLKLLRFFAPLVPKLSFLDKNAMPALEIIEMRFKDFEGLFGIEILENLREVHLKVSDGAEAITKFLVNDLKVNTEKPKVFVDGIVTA

Experiments:
[1] = target: T1, Pikm-1-2xV5 (rice (Oryza sativa)) (UniProt B5UBC1); experiment: co-IP
T1 sequence: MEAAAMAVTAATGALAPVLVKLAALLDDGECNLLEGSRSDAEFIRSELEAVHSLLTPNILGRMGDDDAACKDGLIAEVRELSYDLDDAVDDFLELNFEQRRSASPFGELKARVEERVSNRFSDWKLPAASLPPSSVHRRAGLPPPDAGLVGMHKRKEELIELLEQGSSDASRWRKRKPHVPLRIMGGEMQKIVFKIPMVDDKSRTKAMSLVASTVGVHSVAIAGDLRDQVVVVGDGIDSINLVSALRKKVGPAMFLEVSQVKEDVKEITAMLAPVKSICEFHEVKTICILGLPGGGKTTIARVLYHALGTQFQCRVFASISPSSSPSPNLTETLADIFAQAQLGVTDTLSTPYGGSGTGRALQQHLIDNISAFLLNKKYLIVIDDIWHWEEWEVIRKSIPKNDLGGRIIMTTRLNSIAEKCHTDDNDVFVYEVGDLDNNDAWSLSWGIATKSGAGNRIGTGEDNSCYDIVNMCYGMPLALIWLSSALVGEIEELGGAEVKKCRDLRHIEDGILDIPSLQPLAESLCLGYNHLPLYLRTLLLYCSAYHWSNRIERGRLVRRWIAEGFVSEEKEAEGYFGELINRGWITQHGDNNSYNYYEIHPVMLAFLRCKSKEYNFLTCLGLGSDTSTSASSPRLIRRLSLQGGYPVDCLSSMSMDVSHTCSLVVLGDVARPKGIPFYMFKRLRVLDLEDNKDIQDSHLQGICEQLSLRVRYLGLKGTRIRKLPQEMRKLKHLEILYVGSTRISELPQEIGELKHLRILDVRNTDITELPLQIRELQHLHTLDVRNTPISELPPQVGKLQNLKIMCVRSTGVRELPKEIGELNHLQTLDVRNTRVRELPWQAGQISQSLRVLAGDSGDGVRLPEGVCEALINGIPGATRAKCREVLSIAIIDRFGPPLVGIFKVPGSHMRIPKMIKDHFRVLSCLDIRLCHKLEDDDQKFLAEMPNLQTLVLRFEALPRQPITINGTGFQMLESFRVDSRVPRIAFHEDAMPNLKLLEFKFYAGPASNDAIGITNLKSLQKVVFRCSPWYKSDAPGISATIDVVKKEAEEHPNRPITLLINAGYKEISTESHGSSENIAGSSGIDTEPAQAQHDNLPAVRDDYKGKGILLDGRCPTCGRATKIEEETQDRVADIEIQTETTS

[2] = target: T1, Pikm-1-2xV5 (rice (Oryza sativa)); experiment: native gel or EMSA

- binding [1]: binds
- binding [2]: binds
Substance: Pikm-2-6xHA (from UniProt P0DO08) (receptor)

Results are given in words; binding and its absence hold for the method and conditions named. Binding calls can cover weak binding; strength is not graded here. For some assays here: In cells and extracts the contact can be indirect.
